Source: the supplement of paper PMC10849652
The other results are listed elsewhere or left out.

Protein sequences, listed by entry. Tags and fused reporters are not part of them. Lines headed by an entry give the natural chain unless they say otherwise; changes in a name come on top.
UniProt Q9BXX2: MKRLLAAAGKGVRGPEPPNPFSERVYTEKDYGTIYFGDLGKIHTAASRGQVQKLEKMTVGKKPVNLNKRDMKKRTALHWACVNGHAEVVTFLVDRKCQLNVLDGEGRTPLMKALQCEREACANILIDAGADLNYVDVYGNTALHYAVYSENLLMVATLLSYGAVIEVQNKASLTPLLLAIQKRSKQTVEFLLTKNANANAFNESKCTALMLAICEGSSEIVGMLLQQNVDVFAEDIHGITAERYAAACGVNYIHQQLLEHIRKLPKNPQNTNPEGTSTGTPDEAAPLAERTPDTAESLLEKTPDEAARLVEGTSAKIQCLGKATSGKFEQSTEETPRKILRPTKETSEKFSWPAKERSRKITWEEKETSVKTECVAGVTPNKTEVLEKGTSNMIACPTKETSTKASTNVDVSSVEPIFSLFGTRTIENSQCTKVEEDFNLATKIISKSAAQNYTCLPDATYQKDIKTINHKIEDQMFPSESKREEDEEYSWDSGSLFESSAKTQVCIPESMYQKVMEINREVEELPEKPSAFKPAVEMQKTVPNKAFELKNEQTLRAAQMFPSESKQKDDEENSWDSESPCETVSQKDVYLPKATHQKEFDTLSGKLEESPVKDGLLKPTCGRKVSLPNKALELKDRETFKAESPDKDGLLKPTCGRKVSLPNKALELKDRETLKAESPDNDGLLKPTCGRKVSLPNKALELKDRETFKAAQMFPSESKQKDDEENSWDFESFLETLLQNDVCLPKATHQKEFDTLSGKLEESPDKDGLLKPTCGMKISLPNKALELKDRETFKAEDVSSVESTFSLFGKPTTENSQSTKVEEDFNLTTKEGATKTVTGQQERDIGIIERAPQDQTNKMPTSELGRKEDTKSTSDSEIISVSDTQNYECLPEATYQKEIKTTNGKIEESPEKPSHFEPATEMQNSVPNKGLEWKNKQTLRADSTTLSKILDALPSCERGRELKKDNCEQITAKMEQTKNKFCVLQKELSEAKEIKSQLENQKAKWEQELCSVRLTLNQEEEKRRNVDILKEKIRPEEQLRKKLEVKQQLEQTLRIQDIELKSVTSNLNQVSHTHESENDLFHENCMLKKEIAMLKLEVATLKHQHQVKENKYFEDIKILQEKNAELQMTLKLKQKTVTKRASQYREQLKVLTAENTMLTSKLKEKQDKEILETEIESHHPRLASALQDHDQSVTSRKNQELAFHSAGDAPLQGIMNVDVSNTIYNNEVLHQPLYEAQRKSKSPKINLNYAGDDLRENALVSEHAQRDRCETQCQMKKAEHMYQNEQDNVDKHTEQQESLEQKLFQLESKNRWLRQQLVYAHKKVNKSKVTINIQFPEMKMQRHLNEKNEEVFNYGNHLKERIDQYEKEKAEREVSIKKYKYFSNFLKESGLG
UniProt Q13686: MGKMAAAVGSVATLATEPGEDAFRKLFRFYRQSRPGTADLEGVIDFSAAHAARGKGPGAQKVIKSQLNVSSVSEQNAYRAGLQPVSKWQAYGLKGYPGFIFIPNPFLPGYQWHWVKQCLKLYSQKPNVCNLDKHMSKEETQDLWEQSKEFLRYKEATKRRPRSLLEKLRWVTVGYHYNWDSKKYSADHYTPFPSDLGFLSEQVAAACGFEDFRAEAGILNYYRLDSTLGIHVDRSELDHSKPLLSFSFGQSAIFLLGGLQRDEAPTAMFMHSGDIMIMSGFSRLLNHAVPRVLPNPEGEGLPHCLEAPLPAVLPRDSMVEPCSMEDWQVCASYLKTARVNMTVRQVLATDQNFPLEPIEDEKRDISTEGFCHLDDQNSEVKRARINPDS
UniProt Q9UNK9: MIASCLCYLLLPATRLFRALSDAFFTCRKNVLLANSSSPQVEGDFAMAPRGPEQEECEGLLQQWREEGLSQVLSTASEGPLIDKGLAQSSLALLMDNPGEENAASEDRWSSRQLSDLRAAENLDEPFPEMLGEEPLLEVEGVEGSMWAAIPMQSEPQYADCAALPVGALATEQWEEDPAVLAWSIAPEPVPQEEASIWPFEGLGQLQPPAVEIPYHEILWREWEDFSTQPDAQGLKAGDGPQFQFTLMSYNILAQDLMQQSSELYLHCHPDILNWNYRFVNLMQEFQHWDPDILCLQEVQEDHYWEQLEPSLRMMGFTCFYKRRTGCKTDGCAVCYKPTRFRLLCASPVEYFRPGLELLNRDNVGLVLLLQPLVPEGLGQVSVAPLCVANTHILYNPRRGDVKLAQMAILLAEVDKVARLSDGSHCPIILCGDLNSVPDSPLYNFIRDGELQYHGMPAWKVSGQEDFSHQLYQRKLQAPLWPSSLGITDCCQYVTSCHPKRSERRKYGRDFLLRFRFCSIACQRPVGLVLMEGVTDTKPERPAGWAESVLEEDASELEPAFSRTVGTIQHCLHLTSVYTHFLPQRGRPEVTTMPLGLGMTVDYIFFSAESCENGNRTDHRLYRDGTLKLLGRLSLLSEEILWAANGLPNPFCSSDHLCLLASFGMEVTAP
UniProt P13196: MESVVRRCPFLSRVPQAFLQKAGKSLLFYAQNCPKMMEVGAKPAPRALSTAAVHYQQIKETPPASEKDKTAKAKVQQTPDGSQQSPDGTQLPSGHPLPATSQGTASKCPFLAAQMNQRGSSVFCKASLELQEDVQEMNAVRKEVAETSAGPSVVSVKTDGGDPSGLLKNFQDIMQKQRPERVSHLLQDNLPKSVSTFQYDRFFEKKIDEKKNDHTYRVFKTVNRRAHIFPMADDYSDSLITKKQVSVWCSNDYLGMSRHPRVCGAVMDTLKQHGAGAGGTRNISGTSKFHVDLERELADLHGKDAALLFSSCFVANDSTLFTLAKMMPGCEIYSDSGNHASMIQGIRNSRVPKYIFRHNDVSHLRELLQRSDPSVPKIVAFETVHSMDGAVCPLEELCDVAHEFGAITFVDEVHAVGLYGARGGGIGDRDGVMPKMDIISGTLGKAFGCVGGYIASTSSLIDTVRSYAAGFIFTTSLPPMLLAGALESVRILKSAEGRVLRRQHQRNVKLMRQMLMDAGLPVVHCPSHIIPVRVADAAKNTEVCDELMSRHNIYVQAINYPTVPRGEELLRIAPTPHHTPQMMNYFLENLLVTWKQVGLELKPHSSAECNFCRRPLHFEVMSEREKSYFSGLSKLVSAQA
UniProt Q9H8T0: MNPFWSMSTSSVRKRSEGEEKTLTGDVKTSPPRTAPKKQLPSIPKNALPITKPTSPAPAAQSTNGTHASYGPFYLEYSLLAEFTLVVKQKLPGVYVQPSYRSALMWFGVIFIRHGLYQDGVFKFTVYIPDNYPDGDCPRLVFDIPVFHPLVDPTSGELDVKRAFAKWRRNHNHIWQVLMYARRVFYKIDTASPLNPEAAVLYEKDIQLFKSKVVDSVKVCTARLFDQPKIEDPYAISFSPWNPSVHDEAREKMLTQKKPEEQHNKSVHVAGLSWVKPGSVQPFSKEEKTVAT
UniProt P30838: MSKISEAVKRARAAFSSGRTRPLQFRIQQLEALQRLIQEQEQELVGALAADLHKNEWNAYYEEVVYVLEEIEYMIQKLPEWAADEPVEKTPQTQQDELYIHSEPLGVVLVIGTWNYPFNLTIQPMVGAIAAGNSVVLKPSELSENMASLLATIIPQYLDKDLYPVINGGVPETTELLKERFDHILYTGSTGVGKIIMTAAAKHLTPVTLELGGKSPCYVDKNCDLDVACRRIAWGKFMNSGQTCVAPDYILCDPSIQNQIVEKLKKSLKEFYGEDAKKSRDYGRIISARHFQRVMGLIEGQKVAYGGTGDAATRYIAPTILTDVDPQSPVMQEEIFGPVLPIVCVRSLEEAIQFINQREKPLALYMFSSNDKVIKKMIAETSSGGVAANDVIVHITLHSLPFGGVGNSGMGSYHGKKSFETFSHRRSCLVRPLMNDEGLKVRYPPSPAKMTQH
UniProt Q96F25: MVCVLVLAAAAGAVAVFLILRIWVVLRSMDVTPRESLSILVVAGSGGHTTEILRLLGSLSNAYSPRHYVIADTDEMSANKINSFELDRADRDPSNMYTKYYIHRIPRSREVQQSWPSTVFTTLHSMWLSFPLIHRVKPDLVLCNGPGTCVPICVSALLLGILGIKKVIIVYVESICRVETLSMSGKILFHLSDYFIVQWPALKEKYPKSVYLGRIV
UniProt P47895: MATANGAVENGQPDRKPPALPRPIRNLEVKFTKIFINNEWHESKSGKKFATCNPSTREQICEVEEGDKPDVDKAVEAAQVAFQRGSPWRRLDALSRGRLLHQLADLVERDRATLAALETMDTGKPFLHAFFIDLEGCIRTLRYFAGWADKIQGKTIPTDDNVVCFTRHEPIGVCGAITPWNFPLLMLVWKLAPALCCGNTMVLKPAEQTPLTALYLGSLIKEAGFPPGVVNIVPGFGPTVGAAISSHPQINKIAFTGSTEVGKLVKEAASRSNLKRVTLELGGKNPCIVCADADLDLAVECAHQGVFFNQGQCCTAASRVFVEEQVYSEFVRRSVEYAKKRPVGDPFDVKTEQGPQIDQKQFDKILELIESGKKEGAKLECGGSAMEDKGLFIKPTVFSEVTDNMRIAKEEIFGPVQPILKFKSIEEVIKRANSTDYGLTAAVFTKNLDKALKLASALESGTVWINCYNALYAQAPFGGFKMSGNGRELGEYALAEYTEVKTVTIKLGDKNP
UniProt Q8N7Z5: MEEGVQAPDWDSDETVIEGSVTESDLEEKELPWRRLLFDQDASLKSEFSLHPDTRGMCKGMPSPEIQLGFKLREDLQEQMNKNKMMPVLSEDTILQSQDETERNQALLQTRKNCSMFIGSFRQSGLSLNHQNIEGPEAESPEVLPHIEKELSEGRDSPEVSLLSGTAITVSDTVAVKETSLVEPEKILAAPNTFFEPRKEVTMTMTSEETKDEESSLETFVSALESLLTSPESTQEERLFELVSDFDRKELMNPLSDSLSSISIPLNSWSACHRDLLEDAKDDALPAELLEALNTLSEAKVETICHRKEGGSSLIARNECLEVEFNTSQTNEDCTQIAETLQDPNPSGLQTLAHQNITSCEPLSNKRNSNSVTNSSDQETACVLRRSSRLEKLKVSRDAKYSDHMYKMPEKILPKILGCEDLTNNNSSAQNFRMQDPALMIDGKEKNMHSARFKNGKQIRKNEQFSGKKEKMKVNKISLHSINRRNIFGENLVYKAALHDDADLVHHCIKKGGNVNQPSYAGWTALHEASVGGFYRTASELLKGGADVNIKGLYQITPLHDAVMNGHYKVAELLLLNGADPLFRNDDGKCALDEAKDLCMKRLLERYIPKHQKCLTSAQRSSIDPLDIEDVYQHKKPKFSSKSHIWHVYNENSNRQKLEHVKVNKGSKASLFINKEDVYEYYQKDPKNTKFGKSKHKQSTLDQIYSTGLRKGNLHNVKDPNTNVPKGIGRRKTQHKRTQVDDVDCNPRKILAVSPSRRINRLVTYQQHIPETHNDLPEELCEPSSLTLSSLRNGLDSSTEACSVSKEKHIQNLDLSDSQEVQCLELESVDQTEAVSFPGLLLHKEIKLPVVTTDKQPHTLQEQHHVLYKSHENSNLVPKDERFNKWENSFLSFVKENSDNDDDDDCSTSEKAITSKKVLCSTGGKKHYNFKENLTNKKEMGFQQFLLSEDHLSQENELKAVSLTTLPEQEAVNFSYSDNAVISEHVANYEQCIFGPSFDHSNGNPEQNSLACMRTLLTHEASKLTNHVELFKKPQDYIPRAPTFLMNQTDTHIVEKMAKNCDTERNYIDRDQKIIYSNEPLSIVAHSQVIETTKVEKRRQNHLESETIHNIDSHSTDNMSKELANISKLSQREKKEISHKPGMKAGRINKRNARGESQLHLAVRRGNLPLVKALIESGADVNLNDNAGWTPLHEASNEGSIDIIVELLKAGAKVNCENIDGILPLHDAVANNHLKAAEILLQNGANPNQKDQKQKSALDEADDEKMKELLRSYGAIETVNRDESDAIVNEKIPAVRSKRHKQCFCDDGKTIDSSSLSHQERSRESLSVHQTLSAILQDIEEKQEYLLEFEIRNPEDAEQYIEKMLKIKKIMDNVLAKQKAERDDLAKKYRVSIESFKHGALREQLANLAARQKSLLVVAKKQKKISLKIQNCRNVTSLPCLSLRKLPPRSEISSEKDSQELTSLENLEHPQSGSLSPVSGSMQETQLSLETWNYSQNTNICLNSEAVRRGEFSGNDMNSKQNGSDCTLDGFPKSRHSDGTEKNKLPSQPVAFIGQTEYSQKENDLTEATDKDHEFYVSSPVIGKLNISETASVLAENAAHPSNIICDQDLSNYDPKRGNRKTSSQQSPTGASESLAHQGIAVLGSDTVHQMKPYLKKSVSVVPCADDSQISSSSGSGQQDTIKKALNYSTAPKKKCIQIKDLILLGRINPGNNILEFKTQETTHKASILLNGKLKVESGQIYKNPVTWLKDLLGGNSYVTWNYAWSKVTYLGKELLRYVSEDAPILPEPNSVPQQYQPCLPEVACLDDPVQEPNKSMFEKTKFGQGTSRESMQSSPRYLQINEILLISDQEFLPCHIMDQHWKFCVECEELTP

Key:
Assay in all cases: log2 fold change, soluble protein after heating vs DMSO (PISA); higher = thermal stabilisation; K562 lysate, 10 uM; active = over 0.2 and 3.5 SD of the protein, either way, in both replicates (recomputed)
nilotinib = compound: Cc1cn(-c2cc(NC(=O)c3ccc(C)c(Nc4nccc(-c5cccnc5)n4)c3)cc(C(F)(F)F)c2)cn1 [nilotinib]
Method in brief: (§1)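 Following dounce homogenisation of K562 pellets in PBS pH 7.4 with 1 mM MgCl2, crude extract at 1 mg/mL protein was incubated for 30 min with 10 μM compound. Aliquots were then heated for 3 min over 48°C-58°C and pooled, NP-40 was added to 0.5% at 4°C, and soluble protein was recovered as the supernatant at 21,000xg for 90 min. Channel-sum-equalised TMTpro 16plex LC-MS/MS quantified this protein. Each value, from duplicates, is a log-two fold change in thermal stability relative to solvent controls.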

[1] = compound: Cc1nc(Nc2n[nH]c3c2CN(C(=O)N[C@H](CN(C)C)c2ccccc2)C3(C)C)c2sccc2n1
Method in brief: as §1

dasatinib = compound: Cc1nc(Nc2ncc(C(=O)Nc3c(C)cccc3Cl)s2)cc(N2CCN(CCO)CC2)n1 [dasatinib]
Method in brief: as §1

[2] = compound: Cc1ncc(-c2ccnc(Nc3ccc(S(C)(=O)=O)cc3)n2)n1C(C)C
Method in brief: as §1

[3] = compound: Cn1cc(-c2ccc3c(c2)CCN3C(=O)Cc2cccc(C(F)(F)F)c2)c2c(N)ncnc21
Method in brief: as §1

tipifarnib = compound: Cn1cncc1[C@@](N)(c1ccc(Cl)cc1)c1ccc2c(c1)c(-c1cccc(Cl)c1)cc(=O)n2C [tipifarnib]
Method in brief: as §1

[4] = compound: NC(=O)c1cnc(N[C@@H]2CCCC[C@@H]2N)nc1Nc1cccc(-n2nccn2)c1
Method in brief: as §1

[5] = compound: NC1(c2ccc(-c3nc4ccn5c(=O)[nH]nc5c4cc3-c3ccccc3)cc2)CCC1
Method in brief: as §1

[6] = compound: NCC(=O)Nc1ccc(-n2nc(C(F)(F)F)cc2-c2ccc3c(ccc4ccccc43)c2)cc1
Method in brief: as §1

vorinostat = compound: O=C(CCCCCCC(=O)Nc1ccccc1)NO [vorinostat]
Method in brief: as §1

silmitasertib = compound: O=C(O)c1ccc2c(c1)nc(Nc1cccc(Cl)c1)c1ccncc12 [silmitasertib]
Method in brief: as §1

entospletinib = compound: c1cn2cc(-c3ccc4cn[nH]c4c3)nc(Nc3ccc(N4CCOCC4)cc3)c2n1 [entospletinib]
Method in brief: as §1

quisinostat = compound: Cn1cc(CNCC2CCN(c3ncc(C(=O)NO)cn3)CC2)c2ccccc21 [quisinostat]
Method in brief: as §1

[7] = compound: NC(=O)Nc1cc(-c2cccc(F)c2)sc1C(=O)N[C@H]1CCCNC1
Method in brief: as §1

[8] = compound: O=C1NC(=O)C(c2cnc3ccccn23)=C1c1cn2c3c(cc(F)cc13)CN(C(=O)N1CCCCC1)CC2
Method in brief: as §1

Measured: log2 fold change

ANKRD30B (UniProt Q9BXX2)
inactive: nilotinib 0.061 | [1] -0.076 | dasatinib -0.061 | [2] 0.072 | [3] -0.015 | tipifarnib -0.065 | [4] 0.059 | [5] -0.051 | [6] 0.228 | vorinostat 0.147 | silmitasertib 0.047 | entospletinib 0.025

ALG11 (UniProt Q2TAA5)
inactive: nilotinib -0.08 | [1] 0.033 | dasatinib 0.001 | [2] -0.094 | [3] -0.054 | quisinostat 0.2 | tipifarnib -0.196 | [7] -0.026 | [5] 0.158 | vorinostat -0.253 | silmitasertib -0.192 | [8] -0.101

AMOTL1 (UniProt Q8IY63)
inactive: nilotinib 0 | [1] 0.081 | dasatinib 0.034 | [2] 0.198 | [3] -0.18 | quisinostat -0.048 | tipifarnib -0.062 | [7] 0.01 | [5] 0.003 | [6] 0.218 | vorinostat -0.036 | silmitasertib 0.002 | [8] 0 | entospletinib -0.015

ALKBH1 (UniProt Q13686)
active: vorinostat -0.284
inactive: nilotinib -0.087 | [1] -0.026 | dasatinib -0.249 | [2] -0.052 | [3] 0.007 | tipifarnib 0.137 | [5] 0.116 | [6] -0.089 | silmitasertib 0.135 | entospletinib -0.052

ANAPC15 isoform 2 (UniProt P60006)
inactive: nilotinib 0.057 | [1] -0.078 | dasatinib 0.08 | [2] 0.048 | [3] -0.026 | quisinostat -0.213 | tipifarnib -0.101 | [7] 0.074 | [5] 0.019 | vorinostat -0.285 | silmitasertib 0.008 | [8] -0.012 | entospletinib 0.116

ALDOA (UniProt H3BPS8)
inactive: nilotinib 0.151 | [1] -0.287 | [2] 0.11 | tipifarnib 0.146 | [4] -0.15 | [5] 0.028 | [6] 0.024 | vorinostat 0.212 | silmitasertib 0.077 | entospletinib -0.069

ANGEL1 (UniProt Q9UNK9)
inactive: nilotinib 0.097 | [1] 0.051 | [2] 0.027 | quisinostat -0.12 | tipifarnib 0.036 | [7] -0.117 | [8] 0.035

ANKRD40 (UniProt Q6AI12)
active: [6] 0.914
inactive: nilotinib -0.04 | [1] -0.115 | dasatinib 0.197 | [2] 0.071 | [3] -0.064 | quisinostat -0.161 | tipifarnib 0.137 | [7] -0.001 | [5] -0.119 | vorinostat -0.217 | silmitasertib -0.088 | [8] 0.007 | entospletinib -0.057

ANKRD50 (UniProt Q9ULJ7)
inactive: nilotinib -0.037 | [1] -0.118 | [2] -0.057 | quisinostat -0.221 | tipifarnib 0.166 | [7] 0.066 | [4] -0.013 | [5] -0.113 | vorinostat -0.542 | silmitasertib 0.034 | [8] -0.022 | entospletinib -0.095

ANK2 (UniProt Q01484)
inactive: nilotinib -0.068 | [1] -0.077 | dasatinib -0.095 | [2] 0.109 | [3] 0.077 | quisinostat -0.086 | tipifarnib 0.145 | [7] -0.065 | [8] 0.076

ANXA6 (UniProt E5RK69)
inactive: nilotinib -0.076 | [1] 0.012 | dasatinib -0.048 | [2] 0.138 | [3] 0.184 | quisinostat -0.08 | tipifarnib -0.063 | [7] 0.086 | [4] 0.059 | [5] -0.04 | vorinostat -0.008 | silmitasertib -0.044 | [8] 0.037 | entospletinib 0.033

ALAS1 (UniProt P13196)
inactive: nilotinib 0.164 | [1] 0.125 | dasatinib -0.295 | [2] 0.01 | [3] 0.231 | tipifarnib -0.073 | [4] 0.199 | entospletinib 0.05

ALDH18A1 isoform 2 (UniProt P54886)
inactive: dasatinib 0.089 | [3] 0.181 | quisinostat 0.397 | [7] -0.093 | [6] 0.097 | [8] 0.204

ANKRD11 (UniProt Q6UB99)
inactive: dasatinib 0.063 | [3] -0.004 | quisinostat 0.009 | [7] 0.039 | [5] -0.096 | [6] 0 | vorinostat 0.015 | silmitasertib 0.007 | [8] -0.286 | entospletinib 0.051

AKTIP isoform 2 (UniProt Q9H8T0)
inactive: dasatinib -0.005 | [3] 0.105 | [4] -0.139 | [5] 0.404 | vorinostat -0.255 | silmitasertib -0.18 | entospletinib 0.065

AMMECR1L (UniProt Q6DCA0)
inactive: dasatinib -0.011 | [3] 0.024 | quisinostat -0.151 | [7] 0.019 | [5] 0.124 | [6] -0.024 | vorinostat -0.04 | silmitasertib -0.127 | [8] -0.016 | entospletinib 0.02

AP1S2 (UniProt H7BZG6)
inactive: [5] 0.185 | vorinostat -0.096 | silmitasertib -0.159

ALDH3A1 (UniProt P30838)
inactive: [3] -0.024 | quisinostat -0.381 | [7] -0.065 | [4] 0.055 | [5] -0.018 | vorinostat 0.145 | silmitasertib -0.113 | [8] 0.023
active: dasatinib 1.35

AMIGO2 (UniProt Q86SJ2)
inactive: nilotinib 0.04 | [1] -0.024 | [2] 0.002 | tipifarnib -0.187 | [6] -0.022

ALG14 (UniProt Q96F25)
inactive: [4] -0.073

ANKHD1 (UniProt D6RHC4)
inactive: dasatinib 0.069 | [3] -0.126 | [4] 0 | [5] -0.226 | vorinostat 0.071 | silmitasertib -0.429

ALDH1A3 (UniProt P47895)
inactive: entospletinib -0.441

ALPK1 (UniProt Q96QP1)
inactive: [5] 0.046 | vorinostat 0.002 | silmitasertib 0.076

2 consecutive records from above, for reference:
ALDH1A3 (UniProt P47895)
inactive: entospletinib -0.441

ALPK1 (UniProt Q96QP1)
inactive: [5] 0.046 | vorinostat 0.002 | silmitasertib 0.076

Further entries follow:

AMDHD2 (UniProt Q9Y303)
inactive: quisinostat -0.001 | [7] 0.048 | [6] -0.092 | [8] 0.042

AP3S2 (UniProt P59780)
inactive: nilotinib 0 | [1] 0.184 | [2] 0.168 | tipifarnib -0.029 | [4] 0.021 | [5] -0.039 | vorinostat 0 | silmitasertib -0.065

AMN1 (UniProt Q8IY45)
inactive: [4] -0.188

ANAPC11 (UniProt Q9NYG5)
inactive: dasatinib -0.142 | [3] 0.053 | quisinostat 0.095 | [7] -0.057 | [8] 0.136

AP1B1 isoform 3 (UniProt Q10567)
inactive: quisinostat -0.033 | [7] -0.012 | [8] -0.019

ANKRD46 (UniProt Q86W74)
inactive: dasatinib 0.067 | [3] 0.075 | quisinostat 0.034 | [7] -0.09 | [5] -0.013 | [6] -0.012 | vorinostat -0.015 | silmitasertib -0.109 | [8] 0.058

ANO9 (UniProt A1A5B4)
inactive: dasatinib -0.166 | [3] 0.027

ANKRD31 (UniProt Q8N7Z5)
inactive: dasatinib -0.053 | [3] 0.089 | quisinostat -0.001 | [7] 0.068 | [4] 0.063 | [8] -0.022 | entospletinib 0.005
